PubChem BioAssay AID1259308 | NCATS | 2017
Shown is one part, drawn at random, of about 59,000 reagents tested. Of all reagents, about 1,510 (2.6%) are marked active. 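Calls use total luciferase alone and ignore viability, so some active siRNAs may act by altering cell number.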 Reagents against one gene are numbered here. Further read-outs or replicates are left out here.

Purpose: 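Candidate targets for better recombinant protein yield in mammalian cells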 (primary screen)
System: human HEK293 embryonic kidney cells stably expressing firefly luciferase (HEK-CMV-Luc2-Hygro)
Knock-down reagent: single siRNA against human genes, 0.8 pmol siRNA per well
Duration: 72 h
Detection: 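Reporter luminescence and viable-cell signal on separate replicate plates, given as percent of non-targeting control and median/MAD z-scores, plus per-cell luciferase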
Scale: total luciferase, z-score: higher = more reporter protein produced
Rule for the call: 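An siRNA counts as active if its total luciferase robust z-score exceeds 3; genes with two or more such siRNAs out of three were retested with fresh siRNAs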
Meaning of the calls: active = raised luciferase; inactive = no rise

no.	target gene	reagent	total luciferase, z-score	Call
1	CSKMT	1	0.313	inactive
2	CSKMT	2	-0.298	inactive
3	CSKMT	3	2.32	inactive
4	BRD9	1	-0.238	inactive
5	BRD9	2	-0.585	inactive
6	BRD9	3	0.718	inactive
7	RPS24	1	-1.39	inactive
8	RPS24	2	-1.92	inactive
9	RPS24	3	-2.14	inactive
10	ZNF662	1	3.36	active
11	ZNF662	2	-0.0254	inactive
12	ZNF662	3	-0.293	inactive
13	CUL4A	1	-0.701	inactive
14	CUL4A	2	0.822	inactive
15	CUL4A	3	-0.482	inactive
16	SETBP1	1	-0.353	inactive
17	SETBP1	2	2.43	inactive
18	SETBP1	3	-0.426	inactive
19	SERINC5	1	-0.609	inactive
20	SERINC5	2	0.478	inactive
21	SERINC5	3	1.16	inactive
22	RPL23AP25	1	-0.658	inactive
23	RPL23AP25	2	0.578	inactive
24	RPL23AP25	3	0.62	inactive

2 of these entries, set out differently.
{"target gene":"SERINC5","reagent":1,"total luciferase, z-score":-0.609,"Call":"inactive"}
{"target gene":"SERINC5","reagent":2,"total luciferase, z-score":0.478,"Call":"inactive"}
